The values below come from article PMC3206849.

Amino acid sequences for entries named in this document (tags omitted). A change or cut given only in a name is not applied to a line headed by its entry. Chains listed by the source or under a name are the forms on record and can include a tag or linker.
UniProt P10922: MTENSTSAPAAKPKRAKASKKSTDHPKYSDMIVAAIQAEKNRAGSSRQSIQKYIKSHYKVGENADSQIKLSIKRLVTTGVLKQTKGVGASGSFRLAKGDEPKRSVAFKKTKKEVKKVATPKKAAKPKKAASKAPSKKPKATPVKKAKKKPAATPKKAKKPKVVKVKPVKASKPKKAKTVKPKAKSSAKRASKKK
UniProt Q6PHZ2: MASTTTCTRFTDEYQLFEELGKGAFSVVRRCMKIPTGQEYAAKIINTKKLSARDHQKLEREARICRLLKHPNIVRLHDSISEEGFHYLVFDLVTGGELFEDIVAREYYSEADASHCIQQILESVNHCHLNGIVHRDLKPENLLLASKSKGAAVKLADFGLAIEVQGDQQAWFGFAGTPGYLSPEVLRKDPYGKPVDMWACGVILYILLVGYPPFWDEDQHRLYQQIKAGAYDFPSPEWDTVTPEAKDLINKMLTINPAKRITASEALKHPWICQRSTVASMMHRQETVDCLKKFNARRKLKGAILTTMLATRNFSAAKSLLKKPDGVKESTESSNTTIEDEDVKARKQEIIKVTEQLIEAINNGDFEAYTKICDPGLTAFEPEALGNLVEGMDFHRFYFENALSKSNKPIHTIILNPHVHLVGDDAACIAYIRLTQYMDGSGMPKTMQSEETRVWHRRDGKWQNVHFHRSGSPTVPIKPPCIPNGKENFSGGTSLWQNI
UniProt Q8BTI8: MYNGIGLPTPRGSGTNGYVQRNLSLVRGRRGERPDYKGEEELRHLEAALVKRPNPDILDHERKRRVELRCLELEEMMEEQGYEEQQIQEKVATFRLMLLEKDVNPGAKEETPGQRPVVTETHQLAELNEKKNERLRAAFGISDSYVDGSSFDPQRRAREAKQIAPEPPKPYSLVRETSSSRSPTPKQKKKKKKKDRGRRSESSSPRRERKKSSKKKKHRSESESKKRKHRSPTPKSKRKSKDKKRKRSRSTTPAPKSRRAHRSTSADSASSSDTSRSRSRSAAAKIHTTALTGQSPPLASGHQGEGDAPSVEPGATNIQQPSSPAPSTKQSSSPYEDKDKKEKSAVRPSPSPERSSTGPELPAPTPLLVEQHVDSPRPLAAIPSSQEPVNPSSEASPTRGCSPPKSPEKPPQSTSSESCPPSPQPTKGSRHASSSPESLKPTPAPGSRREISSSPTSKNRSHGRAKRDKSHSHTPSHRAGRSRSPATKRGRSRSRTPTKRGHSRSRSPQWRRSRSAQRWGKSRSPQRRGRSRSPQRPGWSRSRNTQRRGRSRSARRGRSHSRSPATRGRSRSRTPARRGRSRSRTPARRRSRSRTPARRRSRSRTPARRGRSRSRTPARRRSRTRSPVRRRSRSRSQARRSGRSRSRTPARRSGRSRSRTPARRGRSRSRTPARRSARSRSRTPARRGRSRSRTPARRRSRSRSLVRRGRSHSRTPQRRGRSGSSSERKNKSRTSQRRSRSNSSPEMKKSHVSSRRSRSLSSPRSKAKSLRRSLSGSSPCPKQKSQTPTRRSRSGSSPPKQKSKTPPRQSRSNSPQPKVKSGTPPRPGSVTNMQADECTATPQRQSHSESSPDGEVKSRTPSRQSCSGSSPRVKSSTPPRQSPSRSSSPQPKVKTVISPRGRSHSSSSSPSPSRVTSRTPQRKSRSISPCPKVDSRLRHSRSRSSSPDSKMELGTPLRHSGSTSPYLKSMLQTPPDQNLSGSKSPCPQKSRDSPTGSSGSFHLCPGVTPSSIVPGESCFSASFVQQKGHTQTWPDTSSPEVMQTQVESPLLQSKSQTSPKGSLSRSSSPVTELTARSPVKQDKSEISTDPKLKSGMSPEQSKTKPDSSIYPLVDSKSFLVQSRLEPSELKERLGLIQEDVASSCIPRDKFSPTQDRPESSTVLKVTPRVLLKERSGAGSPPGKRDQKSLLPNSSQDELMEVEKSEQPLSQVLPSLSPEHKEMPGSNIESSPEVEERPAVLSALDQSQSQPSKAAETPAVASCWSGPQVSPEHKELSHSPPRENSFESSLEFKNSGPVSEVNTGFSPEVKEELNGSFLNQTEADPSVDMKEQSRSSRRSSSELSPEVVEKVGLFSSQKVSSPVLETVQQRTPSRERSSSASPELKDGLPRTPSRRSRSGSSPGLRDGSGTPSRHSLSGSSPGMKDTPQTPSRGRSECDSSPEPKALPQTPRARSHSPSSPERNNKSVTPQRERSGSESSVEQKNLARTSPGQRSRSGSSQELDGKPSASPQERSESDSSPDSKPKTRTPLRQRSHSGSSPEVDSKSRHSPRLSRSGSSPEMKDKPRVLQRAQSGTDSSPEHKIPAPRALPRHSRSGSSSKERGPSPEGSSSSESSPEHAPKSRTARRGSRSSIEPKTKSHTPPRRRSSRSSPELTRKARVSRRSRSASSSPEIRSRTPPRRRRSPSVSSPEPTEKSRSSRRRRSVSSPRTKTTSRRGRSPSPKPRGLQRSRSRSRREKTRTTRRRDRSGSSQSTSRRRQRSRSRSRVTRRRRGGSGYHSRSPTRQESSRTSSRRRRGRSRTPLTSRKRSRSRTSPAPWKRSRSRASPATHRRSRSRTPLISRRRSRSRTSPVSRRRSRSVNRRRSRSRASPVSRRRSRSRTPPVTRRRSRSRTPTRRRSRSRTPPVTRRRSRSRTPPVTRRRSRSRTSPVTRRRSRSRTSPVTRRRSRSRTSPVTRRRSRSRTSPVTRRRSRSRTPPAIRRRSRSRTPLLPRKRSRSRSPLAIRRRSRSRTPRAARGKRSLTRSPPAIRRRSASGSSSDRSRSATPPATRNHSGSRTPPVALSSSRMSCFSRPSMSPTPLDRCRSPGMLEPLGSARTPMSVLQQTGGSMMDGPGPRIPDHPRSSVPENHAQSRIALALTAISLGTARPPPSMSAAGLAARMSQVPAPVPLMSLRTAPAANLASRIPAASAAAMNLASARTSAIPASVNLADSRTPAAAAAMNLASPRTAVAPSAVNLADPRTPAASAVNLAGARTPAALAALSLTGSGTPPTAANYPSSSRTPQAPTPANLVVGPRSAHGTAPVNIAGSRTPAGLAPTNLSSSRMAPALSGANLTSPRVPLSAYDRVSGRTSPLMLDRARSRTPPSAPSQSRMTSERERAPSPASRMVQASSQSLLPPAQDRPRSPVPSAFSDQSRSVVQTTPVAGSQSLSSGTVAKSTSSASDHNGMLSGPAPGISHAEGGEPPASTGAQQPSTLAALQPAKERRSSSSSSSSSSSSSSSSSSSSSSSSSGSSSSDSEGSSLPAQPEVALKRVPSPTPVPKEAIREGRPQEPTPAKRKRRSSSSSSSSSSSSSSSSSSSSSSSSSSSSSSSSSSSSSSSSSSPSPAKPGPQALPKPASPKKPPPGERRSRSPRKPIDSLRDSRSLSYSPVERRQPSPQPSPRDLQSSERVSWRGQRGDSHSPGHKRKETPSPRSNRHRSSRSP
Isoform Alpha-2 of Guanine nucleotide-binding protein G(o) subunit alpha (P18872-2, form named): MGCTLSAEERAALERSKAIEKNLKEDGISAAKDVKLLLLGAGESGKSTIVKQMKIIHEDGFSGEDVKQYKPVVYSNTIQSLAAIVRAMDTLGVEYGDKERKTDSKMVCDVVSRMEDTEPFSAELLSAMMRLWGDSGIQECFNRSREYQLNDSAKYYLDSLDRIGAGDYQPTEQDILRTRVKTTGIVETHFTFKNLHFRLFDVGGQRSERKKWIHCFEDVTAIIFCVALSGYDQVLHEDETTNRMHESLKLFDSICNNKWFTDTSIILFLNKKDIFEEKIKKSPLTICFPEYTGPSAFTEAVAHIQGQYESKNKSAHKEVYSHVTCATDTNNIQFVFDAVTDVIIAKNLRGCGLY
UniProt Q04447: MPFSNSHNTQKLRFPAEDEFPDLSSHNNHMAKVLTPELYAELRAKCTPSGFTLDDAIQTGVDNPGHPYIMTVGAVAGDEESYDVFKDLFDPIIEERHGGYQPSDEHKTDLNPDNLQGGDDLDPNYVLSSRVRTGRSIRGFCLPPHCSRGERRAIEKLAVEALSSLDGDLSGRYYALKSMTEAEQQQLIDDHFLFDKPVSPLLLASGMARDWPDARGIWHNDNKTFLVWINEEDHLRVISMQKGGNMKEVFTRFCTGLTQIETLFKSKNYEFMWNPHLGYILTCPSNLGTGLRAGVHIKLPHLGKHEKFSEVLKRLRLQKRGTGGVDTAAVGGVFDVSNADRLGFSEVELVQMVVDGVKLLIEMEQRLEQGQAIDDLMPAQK
UniProt P46460: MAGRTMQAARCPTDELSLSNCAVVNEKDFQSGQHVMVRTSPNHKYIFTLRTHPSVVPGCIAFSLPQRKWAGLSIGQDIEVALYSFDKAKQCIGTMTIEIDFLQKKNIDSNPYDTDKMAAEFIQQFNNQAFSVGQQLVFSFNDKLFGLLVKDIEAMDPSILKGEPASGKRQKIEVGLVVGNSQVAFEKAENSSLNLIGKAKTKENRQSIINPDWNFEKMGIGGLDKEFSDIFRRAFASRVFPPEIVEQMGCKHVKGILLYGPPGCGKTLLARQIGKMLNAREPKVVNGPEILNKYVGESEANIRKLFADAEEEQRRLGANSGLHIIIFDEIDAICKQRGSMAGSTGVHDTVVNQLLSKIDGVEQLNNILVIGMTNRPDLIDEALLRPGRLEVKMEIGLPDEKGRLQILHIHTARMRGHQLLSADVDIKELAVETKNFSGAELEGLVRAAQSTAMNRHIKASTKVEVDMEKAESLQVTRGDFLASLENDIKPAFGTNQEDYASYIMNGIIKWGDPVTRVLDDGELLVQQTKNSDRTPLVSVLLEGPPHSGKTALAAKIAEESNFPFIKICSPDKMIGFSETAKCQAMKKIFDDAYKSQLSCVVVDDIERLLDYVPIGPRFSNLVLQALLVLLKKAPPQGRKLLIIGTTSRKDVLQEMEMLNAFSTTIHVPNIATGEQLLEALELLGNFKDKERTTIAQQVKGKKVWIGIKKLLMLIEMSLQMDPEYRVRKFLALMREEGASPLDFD
UniProt P29391: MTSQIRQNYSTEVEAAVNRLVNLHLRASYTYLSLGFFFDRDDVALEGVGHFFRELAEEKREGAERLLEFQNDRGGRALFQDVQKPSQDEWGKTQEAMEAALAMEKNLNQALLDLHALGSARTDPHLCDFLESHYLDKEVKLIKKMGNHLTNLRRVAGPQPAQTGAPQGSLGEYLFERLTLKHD
UniProt P28652: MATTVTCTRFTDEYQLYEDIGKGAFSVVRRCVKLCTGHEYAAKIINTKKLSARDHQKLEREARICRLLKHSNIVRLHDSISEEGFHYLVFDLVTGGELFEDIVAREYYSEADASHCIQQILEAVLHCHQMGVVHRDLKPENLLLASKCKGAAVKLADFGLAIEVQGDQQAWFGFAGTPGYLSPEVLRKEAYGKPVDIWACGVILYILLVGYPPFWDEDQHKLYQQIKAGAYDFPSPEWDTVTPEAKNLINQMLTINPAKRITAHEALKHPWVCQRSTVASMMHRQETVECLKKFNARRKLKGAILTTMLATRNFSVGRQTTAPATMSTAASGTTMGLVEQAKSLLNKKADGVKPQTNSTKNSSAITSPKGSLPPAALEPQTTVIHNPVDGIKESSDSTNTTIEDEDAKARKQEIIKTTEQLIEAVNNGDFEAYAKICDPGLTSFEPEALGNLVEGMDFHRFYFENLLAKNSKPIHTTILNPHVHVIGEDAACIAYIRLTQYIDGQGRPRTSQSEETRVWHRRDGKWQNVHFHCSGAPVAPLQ

These are yes or no findings as the source states them, for the method shown. In cells and extracts the contact can be indirect. Some entries that bind do so weakly or less than the wild type.

The target in the experiment is Major prion protein, disease-associated isoform PrP^Sc in scrapie-associated fibrils (SAF) (mouse (endogenous in brain)) (UniProt P04925). In words: co-sedimentation.

For “Histone H1.0 (from UniProt P10922 1-194)”, the binding result is given as “binds”.
The result for “Pro low-density lipoprotein receptor-related protein 1 (from UniProt Q91ZX7 20-4545)” reads “binds”.
Consider “Calcium/calmodulin dependent kinase type II δ-chain (from UniProt Q6PHZ2 1-499) (enzyme)”, for which the binding result is “no binding”.
As for “Serine arginine repetitive matrix protein 2 (from UniProt Q8BTI8 1-2703)”, the entry is “binds”; as for “Isoform Alpha-2 of Guanine nucleotide-binding protein G(o) subunit alpha (from UniProt P18872-2 1-354)”, “binds”; as for “Creatine kinase B-type (from UniProt Q04447 1-381)”, “binds”.
As for “Vesicle-fusing ATPase (from UniProt P46460 1-744)”, the entry is “binds”.
The result for “Ferritin (light chain 1) (from UniProt P29391 1-183)” reads “no binding”; that for “Calcium/calmodulin dependent kinase type II β-chain (from UniProt P28652 1-542) (enzyme)”, “no binding”.
As to “Na+/K+ ATPase subunit α2 (from UniProt Q6PIE5 1-1020)”, the binding entry is recorded as “binds”.

B1: TBC1 domain family, member 10b (protein, UniProt Q8BHL3 1-798)
chain: METGPAPLVAPPRRHGAPAAPSPPPRGSRAGSHLVVEPGPPVTTATSAPVELVAPGEARPACVPGSSQTSASTPTTATSSTVVMLTLEASPEAAKTQEFPAPAAETGAETSVALALGTDTQKTEEVRASPVPGPGTPTRTPSRMAPGALTAKPPLAPKPGTTVASGVTARGGVGQVAGGHEAATSASAGSVPEDPSGPVTGPPGTCEAPAPTPVAVVTVTPAPEPVENFQDLGSTSSLGPGISGPRGQAPDTLSYLDSVSLMSGTLESLPDDVSSMGSDSEINGMALRKTDKYGFLGGSQYSGSLESSIPVDVARQRELKWLEMFSNWDKWLSRRFQKVKLRCRKGIPSSLRAKAWQYLSNSKELLEQNPGKFEELERAAGDPKWLDVIEKDLHRQFPFHEMFAARGGHGQQDLYRILKAYTIYRPDEGYCQAQAPVAAVLLMHMPAEQAFWCLVQICDKYLPGYYSAGLEAIQLDGEIFFALLRRVSPLAHRHLRRQRIDPVLYMTEWFMCIFARTLPWASVLRVWDMFFCEGVKIIFRVALVLLRHTLGSVEKLRSCQGMYETMEQLRNLPQQCMQEDFLVHEVTNLPVTEAWIERENAAQLKKWRETRGELQYRPSRRLHGSRAIHEERRRQQPPLGPSSSLLSLPSLKSRGSRAVGGAPSPPPPVRRASAGPVPGAVVIAEGLHPSLPSPTGNSTPLGTSKEIRRQEKERQKQEKDREKERQRQEKERERQEKERQKWEKEQEKEQQKQEKERQKLEKKGQGRKLSLRRRADGPPASHDGGDRSAAEARQDAYF
For the molecule B1, the binding result was “binds”.

B2: Isoform CNPII of 2′,3′-cyclic-nucleotide 3′-phosphodiesterase (enzyme, UniProt P16330-1 1-420)
chain: MNTSFTRKSHTFLPKLFFRKMSSSGAKEKPELQFPFLQDEDTVATLHECKTLFILRGLPGSGKSTLARLILEKYHDGTKMVSADAYKIIPGSRADFSEAYKRLDEDLAGYCRRDIRVLVLDDTNHERERLDQLFEMADQYQYQVVLVEPKTAWRLDCAQLKEKNQWQLSADDLKKLKPGLEKDFLPLYFGWFLTKKSSETLRKAGQVFLEELGNHKAFKKELRHFISGDEPKEKLELVSYFGKRPPGVLHCTTKFCDYGKAAGAEEYAQQEVVKRSYGKAFKLSISALFVTPKTAGAQVVLTDQELQLWPSDLDKPSASEGLPPGSRAHVTLGCAADVQPVQTGLDLLDILQQVKGGSQGEAVGELPRGKLYSLGKGRWMLSLTKKMEVKAIFTGYYGKGKPVPIHGSRKGGAMQICTII
For the molecule B2, the binding result is reported as “binds”.

B3: Apolipoprotein E (protein, UniProt P08226 19-311)
chain: EGEPEVTDQLEWQSNQPWEQALNRFWDYLRWVQTLSDQVQEELQSSQVTQELTALMEDTMTEVKAYKKELEEQLGPVAEETRARLGKEVQAAQARLGADMEDLRNRLGQYRNEVHTMLGQSTEEIRARLSTHLRKMRKRLMRDAEDLQKRLAVYKAGAREGAERGVSAIRERLGPLVEQGRQRTANLGAGAAQPLRDRAQAFGDRIRGRLEEVGNQARDRLEEVREHMEEVRSKMEEQTQQIRLQAEIFQARLKGWFEPIVEDMHRQWANLMEKIQASVATNPIITPVAQENQ
In the case of B3, the binding result is given as “binds”.

B4: Isoform 1 of Dynamin 1 (protein, UniProt P39053 1-867)
chain: MGNRGMEDLIPLVNRLQDAFSAIGQNADLDLPQIAVVGGQSAGKSSVLENFVGRDFLPRGSGIVTRRPLVLQLVNSTTEYAEFLHCKGKKFTDFEEVRLEIEAETDRVTGTNKGISPVPINLRVYSPHVLNLTLVDLPGMTKVPVGDQPPDIEFQIRDMLMQFVTKENCLILAVSPANSDLANSDALKIAKEVDPQGQRTIGVITKLDLMDEGTDARDVLENKLLPLRRGYIGVVNRSQKDIDGKKDITAALAAERKFFLSHPSYRHLADRMGTPYLQKVLNQQLTNHIRDTLPGLRNKLQSQLLSIEKEVDEYKNFRPDDPARKTKALLQMVQQFAVDFEKRIEGSGDQIDTYELSGGARINRIFHERFPFELVKMEFDEKELRREISYAIKNIHGIRTGLFTPDMAFETIVKKQVKKIREPCLKCVDMVISELISTVRQCTKKLQQYPRLREEMERIVTTHIREREGRTKEQVMLLIDIELAYMNTNHEDFIGFANAQQRSNQMNKKKTSGNQDEILVIRKGWLTINNIGIMKGGSKEYWFVLTAENLSWYKDDEEKEKKYMLSVDNLKLRDVEKGFMSSKHIFALFNTEQRNVYKDYRQLELACETQEEVDSWKASFLRAGVYPERVGDKEKASETEENGSDSFMHSMDPQLERQVETIRNLVDSYMAIVNKTVRDLMPKTIMHLMINNTKEFIFSELLANLYSCGDQNTLMEESAEQAQRRDEMLRMYHALKEALSIIGDINTTTVSTPMPPPVDDSWLQVQSVPAGRRSPTSSPTPQRRAPAVPPARPGSRGPAPGPPPAGSALGGAPPVPSRPGASPDPFGPPPQVPSRPNRAPPGVPSLGAWRLNSPQGKHENRAGKARL
Take B4: the binding result was “binds”.
